Laboratory results as given in the supplement of paper PMC12067093, “Discovery and optimisation of a covalent ligand for TRIM25 and its application to targeted protein ubiquitination” (Chemical Science, 2025).
Some of the results follow.

Protein sequences, listed by entry. Tags and fused reporters are not part of them. Lines headed by an entry give the natural chain unless they say otherwise; changes in a name come on top.
UniProt Q7Z5K2: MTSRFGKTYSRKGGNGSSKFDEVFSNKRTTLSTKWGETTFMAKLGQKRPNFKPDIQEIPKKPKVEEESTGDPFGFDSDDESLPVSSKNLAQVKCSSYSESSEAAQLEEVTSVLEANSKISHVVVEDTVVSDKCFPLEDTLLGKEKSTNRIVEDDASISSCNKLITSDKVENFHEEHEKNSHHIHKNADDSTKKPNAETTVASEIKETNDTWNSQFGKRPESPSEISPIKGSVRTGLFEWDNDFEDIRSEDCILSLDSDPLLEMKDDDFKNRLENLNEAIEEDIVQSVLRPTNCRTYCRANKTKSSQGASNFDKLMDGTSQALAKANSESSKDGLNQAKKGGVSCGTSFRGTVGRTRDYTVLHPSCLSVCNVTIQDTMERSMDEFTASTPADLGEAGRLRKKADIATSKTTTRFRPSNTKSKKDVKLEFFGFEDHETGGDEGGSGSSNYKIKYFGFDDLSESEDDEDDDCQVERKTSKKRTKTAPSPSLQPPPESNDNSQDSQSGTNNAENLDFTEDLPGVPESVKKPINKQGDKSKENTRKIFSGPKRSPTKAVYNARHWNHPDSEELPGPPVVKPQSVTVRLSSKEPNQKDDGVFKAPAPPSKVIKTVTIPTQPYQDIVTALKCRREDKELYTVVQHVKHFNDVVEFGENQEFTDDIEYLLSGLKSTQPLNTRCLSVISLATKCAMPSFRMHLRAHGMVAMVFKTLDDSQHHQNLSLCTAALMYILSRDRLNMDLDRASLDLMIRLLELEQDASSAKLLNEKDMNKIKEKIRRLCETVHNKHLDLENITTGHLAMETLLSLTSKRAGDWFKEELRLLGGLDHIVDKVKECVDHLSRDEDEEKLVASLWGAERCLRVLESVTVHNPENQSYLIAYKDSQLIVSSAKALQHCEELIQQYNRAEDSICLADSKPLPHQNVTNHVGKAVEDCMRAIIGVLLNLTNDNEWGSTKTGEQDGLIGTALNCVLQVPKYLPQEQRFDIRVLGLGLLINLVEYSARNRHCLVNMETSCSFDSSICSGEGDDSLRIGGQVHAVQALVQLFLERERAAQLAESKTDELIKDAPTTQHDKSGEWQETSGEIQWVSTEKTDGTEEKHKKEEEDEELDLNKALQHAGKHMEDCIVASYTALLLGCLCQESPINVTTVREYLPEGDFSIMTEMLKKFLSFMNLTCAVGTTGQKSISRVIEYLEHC
UniProt Q99536: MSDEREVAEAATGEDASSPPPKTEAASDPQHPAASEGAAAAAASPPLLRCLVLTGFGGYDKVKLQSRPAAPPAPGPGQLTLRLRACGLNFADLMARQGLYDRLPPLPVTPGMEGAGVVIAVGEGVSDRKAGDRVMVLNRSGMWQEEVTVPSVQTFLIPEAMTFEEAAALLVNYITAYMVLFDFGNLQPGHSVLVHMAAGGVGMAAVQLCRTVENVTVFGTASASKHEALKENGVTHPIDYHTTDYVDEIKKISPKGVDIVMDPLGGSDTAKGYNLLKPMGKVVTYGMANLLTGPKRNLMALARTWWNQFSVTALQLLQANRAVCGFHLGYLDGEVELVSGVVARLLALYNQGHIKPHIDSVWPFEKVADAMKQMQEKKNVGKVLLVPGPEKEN
UniProt P26640: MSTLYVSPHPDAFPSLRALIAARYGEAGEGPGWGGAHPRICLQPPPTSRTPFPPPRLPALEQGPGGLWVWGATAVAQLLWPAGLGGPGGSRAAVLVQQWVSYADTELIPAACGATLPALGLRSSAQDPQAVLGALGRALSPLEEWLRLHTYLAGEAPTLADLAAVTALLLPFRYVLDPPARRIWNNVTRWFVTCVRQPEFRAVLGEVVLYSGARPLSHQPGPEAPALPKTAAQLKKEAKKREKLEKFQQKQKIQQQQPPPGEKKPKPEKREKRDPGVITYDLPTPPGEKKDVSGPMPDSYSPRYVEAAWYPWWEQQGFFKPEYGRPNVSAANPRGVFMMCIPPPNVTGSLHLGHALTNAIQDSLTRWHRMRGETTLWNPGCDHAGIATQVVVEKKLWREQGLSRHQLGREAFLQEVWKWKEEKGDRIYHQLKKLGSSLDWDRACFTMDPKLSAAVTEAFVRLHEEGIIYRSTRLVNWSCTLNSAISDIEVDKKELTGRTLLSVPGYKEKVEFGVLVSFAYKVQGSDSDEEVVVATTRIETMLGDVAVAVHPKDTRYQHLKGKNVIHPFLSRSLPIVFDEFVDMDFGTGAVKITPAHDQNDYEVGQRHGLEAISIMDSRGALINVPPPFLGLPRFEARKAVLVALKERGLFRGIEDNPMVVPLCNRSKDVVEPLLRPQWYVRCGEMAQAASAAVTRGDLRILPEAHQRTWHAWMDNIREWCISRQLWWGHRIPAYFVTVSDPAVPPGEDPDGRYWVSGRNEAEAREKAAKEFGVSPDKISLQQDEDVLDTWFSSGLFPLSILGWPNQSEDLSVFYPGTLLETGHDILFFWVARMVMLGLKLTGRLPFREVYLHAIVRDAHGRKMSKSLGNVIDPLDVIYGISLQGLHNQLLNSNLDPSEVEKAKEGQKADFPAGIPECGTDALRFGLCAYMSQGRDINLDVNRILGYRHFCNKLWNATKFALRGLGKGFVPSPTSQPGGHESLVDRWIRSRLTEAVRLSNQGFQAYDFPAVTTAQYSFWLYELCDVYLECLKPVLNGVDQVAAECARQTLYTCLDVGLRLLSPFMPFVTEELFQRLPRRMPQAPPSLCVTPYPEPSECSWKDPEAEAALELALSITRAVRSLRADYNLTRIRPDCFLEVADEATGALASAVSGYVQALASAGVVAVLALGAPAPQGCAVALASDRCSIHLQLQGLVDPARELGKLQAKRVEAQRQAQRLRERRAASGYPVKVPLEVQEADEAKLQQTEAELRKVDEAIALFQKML
UniProt Q709C8: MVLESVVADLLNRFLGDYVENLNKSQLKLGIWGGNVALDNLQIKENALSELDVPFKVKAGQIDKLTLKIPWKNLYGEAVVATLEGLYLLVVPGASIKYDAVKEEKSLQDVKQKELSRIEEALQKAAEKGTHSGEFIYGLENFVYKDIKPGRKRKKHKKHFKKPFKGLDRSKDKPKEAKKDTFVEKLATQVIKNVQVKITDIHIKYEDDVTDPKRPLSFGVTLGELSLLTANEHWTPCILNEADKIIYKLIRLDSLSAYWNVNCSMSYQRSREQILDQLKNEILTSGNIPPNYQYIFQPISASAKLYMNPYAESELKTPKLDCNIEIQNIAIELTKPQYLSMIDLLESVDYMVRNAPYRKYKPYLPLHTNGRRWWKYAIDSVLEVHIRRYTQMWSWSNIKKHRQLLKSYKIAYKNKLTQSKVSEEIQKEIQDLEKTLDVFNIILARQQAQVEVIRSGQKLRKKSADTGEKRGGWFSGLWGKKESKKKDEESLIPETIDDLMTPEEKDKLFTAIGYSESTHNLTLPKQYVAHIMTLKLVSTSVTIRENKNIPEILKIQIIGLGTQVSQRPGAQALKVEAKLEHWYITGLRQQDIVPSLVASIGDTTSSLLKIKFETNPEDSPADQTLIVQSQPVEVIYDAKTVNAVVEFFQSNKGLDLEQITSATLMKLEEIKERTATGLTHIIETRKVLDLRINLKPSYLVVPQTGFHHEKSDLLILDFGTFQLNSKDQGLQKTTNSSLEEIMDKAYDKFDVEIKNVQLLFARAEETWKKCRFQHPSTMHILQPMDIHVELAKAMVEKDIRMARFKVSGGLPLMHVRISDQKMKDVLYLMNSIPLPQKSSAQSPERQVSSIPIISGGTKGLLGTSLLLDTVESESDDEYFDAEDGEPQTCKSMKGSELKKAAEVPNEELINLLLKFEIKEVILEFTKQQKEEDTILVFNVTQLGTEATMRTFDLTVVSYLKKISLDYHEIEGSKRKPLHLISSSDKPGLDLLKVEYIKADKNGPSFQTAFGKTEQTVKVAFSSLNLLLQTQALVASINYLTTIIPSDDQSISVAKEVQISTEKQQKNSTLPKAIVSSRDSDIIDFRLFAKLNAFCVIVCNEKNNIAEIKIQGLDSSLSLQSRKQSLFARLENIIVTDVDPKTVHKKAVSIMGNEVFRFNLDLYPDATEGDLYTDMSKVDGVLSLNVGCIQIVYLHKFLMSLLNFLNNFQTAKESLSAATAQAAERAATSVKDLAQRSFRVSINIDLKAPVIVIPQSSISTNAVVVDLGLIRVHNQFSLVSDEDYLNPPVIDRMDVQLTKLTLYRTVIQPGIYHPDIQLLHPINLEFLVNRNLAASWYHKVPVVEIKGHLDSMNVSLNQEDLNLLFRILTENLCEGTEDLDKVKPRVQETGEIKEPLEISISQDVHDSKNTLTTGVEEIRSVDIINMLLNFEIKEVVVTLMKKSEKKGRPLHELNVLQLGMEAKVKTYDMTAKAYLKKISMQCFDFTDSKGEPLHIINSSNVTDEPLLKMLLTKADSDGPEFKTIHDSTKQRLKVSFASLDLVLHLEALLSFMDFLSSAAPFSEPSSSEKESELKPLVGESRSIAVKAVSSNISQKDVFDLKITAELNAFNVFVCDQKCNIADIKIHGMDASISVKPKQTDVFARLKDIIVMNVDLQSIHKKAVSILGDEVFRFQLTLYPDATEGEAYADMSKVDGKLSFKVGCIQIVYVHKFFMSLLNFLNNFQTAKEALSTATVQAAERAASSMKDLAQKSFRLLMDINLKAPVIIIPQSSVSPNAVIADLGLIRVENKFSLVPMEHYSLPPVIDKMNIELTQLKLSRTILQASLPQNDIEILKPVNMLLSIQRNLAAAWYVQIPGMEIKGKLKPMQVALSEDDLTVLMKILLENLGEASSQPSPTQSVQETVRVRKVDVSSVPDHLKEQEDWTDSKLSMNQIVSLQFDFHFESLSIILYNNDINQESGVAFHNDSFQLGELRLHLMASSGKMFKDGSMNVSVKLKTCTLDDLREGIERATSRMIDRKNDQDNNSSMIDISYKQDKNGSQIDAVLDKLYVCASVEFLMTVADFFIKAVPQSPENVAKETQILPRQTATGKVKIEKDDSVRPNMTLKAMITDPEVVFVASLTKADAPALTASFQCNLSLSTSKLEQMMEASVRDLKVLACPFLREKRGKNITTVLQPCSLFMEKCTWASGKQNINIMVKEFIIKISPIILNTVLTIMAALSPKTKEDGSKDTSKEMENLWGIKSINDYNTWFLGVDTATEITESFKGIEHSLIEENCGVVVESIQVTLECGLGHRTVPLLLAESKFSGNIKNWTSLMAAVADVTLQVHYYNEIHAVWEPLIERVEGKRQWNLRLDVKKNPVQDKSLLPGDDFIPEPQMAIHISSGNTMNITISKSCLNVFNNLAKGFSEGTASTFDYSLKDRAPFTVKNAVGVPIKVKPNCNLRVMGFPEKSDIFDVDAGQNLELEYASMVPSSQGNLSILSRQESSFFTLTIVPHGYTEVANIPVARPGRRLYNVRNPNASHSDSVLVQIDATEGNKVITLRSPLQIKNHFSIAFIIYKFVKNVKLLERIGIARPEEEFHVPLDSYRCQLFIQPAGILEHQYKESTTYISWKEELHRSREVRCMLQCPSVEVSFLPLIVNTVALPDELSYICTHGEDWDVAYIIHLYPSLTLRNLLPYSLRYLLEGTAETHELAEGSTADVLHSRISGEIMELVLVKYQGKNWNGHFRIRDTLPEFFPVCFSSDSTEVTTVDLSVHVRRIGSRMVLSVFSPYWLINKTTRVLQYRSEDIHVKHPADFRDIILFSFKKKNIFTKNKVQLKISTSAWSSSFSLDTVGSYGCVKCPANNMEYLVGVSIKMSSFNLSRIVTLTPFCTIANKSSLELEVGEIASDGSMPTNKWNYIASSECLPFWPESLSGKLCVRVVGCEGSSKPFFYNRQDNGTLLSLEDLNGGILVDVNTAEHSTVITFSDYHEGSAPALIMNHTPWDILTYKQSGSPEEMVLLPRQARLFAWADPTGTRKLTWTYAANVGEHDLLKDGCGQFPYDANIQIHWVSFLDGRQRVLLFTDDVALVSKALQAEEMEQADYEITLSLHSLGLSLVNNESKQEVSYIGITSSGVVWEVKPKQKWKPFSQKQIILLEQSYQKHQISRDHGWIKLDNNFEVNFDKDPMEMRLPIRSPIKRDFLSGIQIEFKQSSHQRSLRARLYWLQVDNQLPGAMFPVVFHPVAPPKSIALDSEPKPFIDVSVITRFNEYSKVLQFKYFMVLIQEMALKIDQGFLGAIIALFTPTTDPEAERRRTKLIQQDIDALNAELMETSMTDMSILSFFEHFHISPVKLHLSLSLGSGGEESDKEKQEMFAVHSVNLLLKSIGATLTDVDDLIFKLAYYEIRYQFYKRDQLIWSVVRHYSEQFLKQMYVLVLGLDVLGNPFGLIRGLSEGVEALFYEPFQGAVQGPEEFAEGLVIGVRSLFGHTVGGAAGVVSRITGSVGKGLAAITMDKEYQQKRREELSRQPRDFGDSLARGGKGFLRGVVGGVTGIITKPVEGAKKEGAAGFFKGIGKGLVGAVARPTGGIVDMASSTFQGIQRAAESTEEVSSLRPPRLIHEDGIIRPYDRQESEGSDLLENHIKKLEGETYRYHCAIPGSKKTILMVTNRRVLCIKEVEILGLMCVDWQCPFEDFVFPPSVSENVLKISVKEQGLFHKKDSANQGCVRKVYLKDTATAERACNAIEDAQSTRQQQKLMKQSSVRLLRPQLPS

Compound: Cc1cc(ccc1-c1ccccc1)C(=O)N1CCCN(CC1)C(=O)CCl [compound 10]
Assay: probe-labelled cysteine peptide fold change vs DMSO (competition) (log2 fold change); higher = less target engagement (more negative = stronger competition)
Details: THP-1, incubation time: 4 h
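Note: competitive profiling in live THP-1 cells: cysteine peptides tagged with an iodoacetamide desthiobiotin (IA-DTB) probe, intensity after compound treatment relative to DMSO-treated cells.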

| Target | probe-labelled cysteine peptide fold change (10 µM) | probe-labelled cysteine peptide fold change (50 µM) |
| --- | --- | --- |
| WAPL_Q7Z5K2_675_CLSVISLATK (UniProt Q7Z5K2) | 0.0765 | -0.0235 |
| VAT1_Q99536_50_CLVLTGFGGYDK (UniProt Q99536) | 0.175 | -0.0328 |
| VARS_P26640_479_LVNWSCTLNSAISDIEVDK (UniProt P26640) | 0.0795 | 0.514 |
| WARS_P23381_394_QFGGNCDVDVSFMYLTFFLEDDDKLEQIRK (UniProt P23381) | -0.0218 | 0.043 |
| VPS33A_Q96AX1_121_SLLCEQR (UniProt Q96AX1) | -0.13 | 0.103 |
| VPS18_Q9P253_780_HVVQEEEDVQTAMACLASCPLLK (UniProt Q9P253) | 0.0539 | -0.256 |
| USP9Y_O00507_684_CLAENAVYLCDR (UniProt O00507) | 0.0416 | 0.0594 |
| VARS_P26640_927_FGLCAYMSQGR (UniProt P26640) | -0.147 | -0.243 |
| VPS45_Q9NRW7_359_NLLEVSEVEQELACQNDHSSALQNIK (UniProt Q9NRW7) | -0.15 | 0.0098 |
| USP9X_Q93008_842_ASYDTLCVLDGDKDSVNCAR (UniProt Q93008) | 0.0562 | -0.694 |
| VPS13C_Q709C8_2395_SCLNVFNNLAK (UniProt Q709C8) | 0.182 | 0.215 |
| VARS_P26640_479_LVNWSCTLNSAISDIEVDKK (UniProt P26640) | 0.122 | -0.0535 |
| VPS18_Q9P253_741_QCADLPEEDEELRK (UniProt Q9P253) | -0.238 | 0.0222 |
| WAPL_Q7Z5K2_1190_VIEYLEHC (UniProt Q7Z5K2) | 0.045 | 0.109 |

A portion taken from the entries so far, as a working copy:

| Target | probe-labelled cysteine peptide fold change (10 µM) | probe-labelled cysteine peptide fold change (50 µM) |
| --- | --- | --- |
| USP9X_Q93008_842_ASYDTLCVLDGDKDSVNCAR (UniProt Q93008) | 0.0562 | -0.694 |
| VPS13C_Q709C8_2395_SCLNVFNNLAK (UniProt Q709C8) | 0.182 | 0.215 |
